In this assay the target is LuxR (Aliivibrio fischeri, UniProt P35327). The following applies: LuxR.

By UniProt entry, the sequences of proteins in these tests, tags left out.
UniProt P35327, whole entry: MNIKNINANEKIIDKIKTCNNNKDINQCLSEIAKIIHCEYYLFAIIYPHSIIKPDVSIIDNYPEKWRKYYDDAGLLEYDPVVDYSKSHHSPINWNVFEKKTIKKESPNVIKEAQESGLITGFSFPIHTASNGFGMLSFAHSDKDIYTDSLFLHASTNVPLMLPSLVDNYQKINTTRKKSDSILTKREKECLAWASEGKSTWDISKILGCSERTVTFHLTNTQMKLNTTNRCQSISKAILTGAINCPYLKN

Molecules are shown by their SMILES. The source holds more than one record for some entries. Only these are listed. There may be further records. The records of an entry differ for a reason that is not stated; some may be repeats, others may stem from another dose, organism or construct than stated.

Turning to `O=C(Cc1cccc([N+](=O)[O-])c1)N[C@H]1CCOC1=O` [11n, N-(3-nitro-phenylacetanoyl)-L-homoserine lactone], the “EC50 lower / activity higher relative to OHHL” value is “ca. 10 fold and 10 fold”.

The values above are taken from patent US7910622B2, “Modulation of bacterial quorum sensing with synthetic ligands” (Wisconsin Alumni Research Foundation, priority 2007, dated 2011).
